The source of these data is patent publication US20050176130A1.

Amino acid sequences for entries named in this document (tags omitted).
UniProt P03418: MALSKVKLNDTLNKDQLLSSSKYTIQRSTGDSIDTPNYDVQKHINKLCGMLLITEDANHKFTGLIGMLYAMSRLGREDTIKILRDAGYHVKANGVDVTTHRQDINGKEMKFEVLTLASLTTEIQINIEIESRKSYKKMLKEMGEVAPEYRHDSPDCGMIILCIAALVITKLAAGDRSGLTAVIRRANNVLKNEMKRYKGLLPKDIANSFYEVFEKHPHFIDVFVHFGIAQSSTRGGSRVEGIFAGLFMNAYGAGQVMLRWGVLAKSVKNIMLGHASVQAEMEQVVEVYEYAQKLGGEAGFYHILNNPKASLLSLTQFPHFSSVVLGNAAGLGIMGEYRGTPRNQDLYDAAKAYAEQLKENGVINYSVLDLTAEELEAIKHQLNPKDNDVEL

These are yes or no findings as the source states them, for the method shown. Binding seen in cells or lysates may run through a third protein. Some entries that bind do so weakly or less than the wild type.

The target of the assay is RSV nucleocapsid (N) protein (human respiratory syncytial virus, A2 strain) (UniProt P03418). Briefly: coimmunoprecipitation with anti-P monoclonal antibodies, 35S-labeled transfected HEp-2 cells, 37 or 39° C.

With “RSV A2 P protein G172S/E176G (from UniProt P03421 1-241)”, the binding result is reported as “binds”. On to “RSV A2 P protein 174-176A (R174A/E175A/E176A) (from UniProt P03421 1-241)”, for which the binding entry is given as “binds”.
